Data: patent publication US4316890 (dated 1982)
* marks the point of attachment. Cbz = O=C(OCc1ccccc1)*; Boc = CC(C)(C)OC(=O)*

Assay: general procedure: solution-phase peptide synthesis; dicyclohexylcarbodiimide / N-hydroxybenzotriazole; ONP active ester
Details: coupling step

Question: For Cbz-K(Boc)NFF-OH, which step yield is on record?
Answer: 88%

Question: Which step yield does the source give for “Bmp(Trt)-Lys(Boc)-Asn-Phe-Phe-(D-Trp)-Lys(Boc)-Thr(But)-Phe-Thr(But)-Pro-Cys(Trt)-OBut” here?
Answer: 85%
